# According to PubChem BioAssay AID602254 (Broad Institute, 2012):
# Screen size: about 1,000 compounds; fewer than 10 were called active.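 Rule for the calls: active = fitted half-maximal concentration no higher than twice the top valid tested dose, with signal falling; inconclusive = flat curve with 30 to 70% inhibition, or poor fit; inactive = the rest.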 This is one part of the list. Results with a measured potency or affinity are listed apart.
# Target: Golgi-associated PDZ and coiled-coil motif-containing protein (Homo sapiens) (UniProt Q9HD26)
# Experiment: CAL PDZ domain peptide-binding inhibitors, dose response, biochemical, fluorescence polarization, untagged CAL PDZ, cherry-pick, set 2 (AID 602254);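 note: 0% = DMSO neutral control and -100% = unlabeled peptide PRC23 positive control; more negative means stronger blocking of peptide binding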
# Conditions: Purified CAL PDZ, TMR peptide fluorescence polarization; at 60 µM (top of the series)
row,Compound,"activity change, negative = inhibition"
1,CCC(Oc1ccccc1C)C(=O)Nc1ccc(S(=O)(=O)Nc2cc(C)on2)cc1 (configuration not stated),inactive: -0.121%
2,Cc1cc(C)nc(NC(=S)Nc2cccc(F)c2)c1,inactive: -0.702%
3,O=C(Nc1cccnc1)c1cc(-c2ccccc2)on1,inactive: -0.234%
4,O=C(CCCCn1c(=O)[nH]c2ccccc2c1=O)NCCC1=CCCCC1,inactive: -6.22%
5,COc1cc(-c2cc(C(=O)Nc3nc4ccccc4s3)c3ccccc3n2)cc(OC)c1OC,inactive: 1.29%
6,COc1ccccc1OCCSc1nc2ccccc2n1CC(N)=O,inactive: -3.42%
7,CCOc1ccc(NC(=O)CC2C(=O)N(c3cccc(OC)c3)C(=O)N2CCOC)cc1 (configuration not stated),inactive: -0.986%
8,Cc1noc(C)c1COC(=O)CCc1nc2ccccc2c(=O)[nH]1,inactive: 0.223%
9,C/C(=N\NC(=O)c1ccc2c(c1)OCO2)c1ccc2c(c1)OCO2,inactive: 0.577%
10,O=C(CCCSc1nnnn1-c1cccc2ccccc12)c1ccc(F)cc1,inactive: -3.23%
11,COc1ccccc1NC(=O)CN1CCC(c2nc3ccc(C)cc3[nH]2)CC1,inactive: 1.67%
12,O=C(Cc1csc(Nc2nc(=S)[nH]c3ccccc23)n1)N1CCN(c2cccc(Cl)c2)CC1,inactive: -1.08%
13,COc1cc(C(=O)NCC(=O)OCC(=O)c2ccc[nH]2)cc(OC)c1OC,inactive: -0.612%
14,CCCN(CCC)CC(C)(C)NS(=O)(=O)c1ccc(Cl)cc1,inactive: -0.73%
15,O=C(Nc1cccc(O)c1)c1cc(-c2ccc3c(c2)OCO3)on1,inactive: 21%
16,COC(=O)Nc1ccc(S(=O)(=O)N2CCCCC2C(=O)O)cc1 (configuration not stated),inactive: -2.39%
17,CS(=O)(=O)c1ccc(C(=O)NC2CCCc3ccccc32)cc1 (configuration not stated),inactive: 4.04%
18,COc1ccc(C(=O)NCC(=O)NCc2ccncc2)cc1,inactive: 0.998%
19,Cc1ccc(NC(=O)c2ccc(S(=O)(=O)N3CCC(C)CC3)cc2)nc1,inactive: 3.95%
20,CC(C)CNC(=O)CC1Nc2ccccc2NC1=O (configuration not stated),inactive: -0.28%
21,O=C(NC(=S)Nn1cnnc1)c1ccccc1Br,inactive: -0.636%

# Ordered by number of heavy atoms (high to low): some entries from above
row,Compound,"activity change, negative = inhibition"
1,CCC(Oc1ccccc1C)C(=O)Nc1ccc(S(=O)(=O)Nc2cc(C)on2)cc1 (configuration not stated),inactive: -0.121%
6,COc1ccccc1OCCSc1nc2ccccc2n1CC(N)=O,inactive: -3.42%
16,COC(=O)Nc1ccc(S(=O)(=O)N2CCCCC2C(=O)O)cc1 (configuration not stated),inactive: -2.39%

# The listing continues:

row,Compound,"activity change, negative = inhibition"
1,O=C(NCCCc1ccncc1)C1CCC(=O)N(Cc2ccc(Cl)cc2)C1 (configuration not stated),inactive: -2.31%
2,CCn1nc(C)c(CNC(=O)c2ccc(OC3CCN(Cc4ccccn4)CC3)cc2)c1C,inactive: -4.32%
3,C=CCn1c(O)c(/C=C2\C=NN=C2c2ccccc2)sc1=S,inactive: -4.91%
4,COc1ccc(OC)c(-c2csc(NC(=O)c3ccc4c(c3)OCO4)n2)c1,inactive: 0.356%
5,Cc1ccc(S(=O)(=O)c2nc(NN(C)C)sc2Cl)cc1,inactive: -1.6%
6,CC(=O)Nc1sc2c(c1C(N)=O)CCC2,inactive: 2.98%
7,FC(F)(F)c1ccccc1NC(=S)N1CCCC1,inactive: 3.04%
8,OCC1(CCOc2ccccc2)CCN(Cc2cccn2-c2ncccn2)CC1,inactive: -0.78%
9,CC(C)CC1NC(=O)N(CC(=O)N(C)C2CCCCC2)C1=O (configuration not stated),inactive: -0.87%
10,CC(=O)c1cnc2nc(SCc3ccc(Cl)cc3)nn2c1C,inactive: 10.5%
11,Brc1ccc(-c2noc(C3CCCCC3)n2)cc1,inactive: -12%
12,COc1ccc(N/N=C(\C#N)C(=N)N2CCCCC2)cc1,inactive: 1.07%
13,COC(=O)c1sc(-c2ccc(Cl)cc2)cc1N,inactive: -1.9%
14,O=C(NCc1ccccn1)NC12CC3CC(CC(C3)C1)C2,inactive: -5.26%
15,COc1ccc(CNC(=O)CCN2C(=S)NC(C)(C)CC2C)cc1 (configuration not stated),inactive: -3.51%
16,COC(=O)c1ccc(Cn2nc(C)cc2C)cc1,inactive: 2.75%
17,CCCCNC(=S)N1CCN(c2ccccc2Cl)CC1,inactive: -1.76%
18,Cc1ccccc1Nc1c(-c2ccccn2)nc2ccccn12,inactive: -5.43%
19,O=C(Nc1ccc2cn[nH]c2c1)c1ccccc1F,inactive: -2.66%
20,CCCN(CC(=O)Nc1ccccc1C)C(=O)c1sc2ccccc2c1Cl,inactive: 2.41%
21,Cc1c(CCC(=O)O)c(=O)oc2c(C)c(OCc3cc4c(cc3Cl)OCO4)ccc12,inactive: 1.92%

row,Compound,"activity change, negative = inhibition"
1,CCOc1ccc(NC(=O)CN(C)S(=O)(=O)c2cccs2)cc1,inactive: -3.37%
2,COc1ccc(NC(=O)NC2(C)CCS(=O)(=O)C2)cc1 (configuration not stated),inactive: 1.26%
3,CCOC(=O)c1c(NC(=O)C2CCCCC2)sc2c1CCN(CC)C2,inactive: -0.655%
4,CSc1ccccc1OCc1cc(C(=O)N2CCN(c3ccccc3)CC2C)no1 (configuration not stated),inactive: -4.89%
5,CC(=O)C1CCCN(C(=O)c2ccc3oc(CCc4ccccc4)nc3c2)C1 (configuration not stated),inactive: 3.86%
6,O=C1NCCCCC1NS(=O)(=O)c1ccc(F)c(F)c1 (configuration not stated),inactive: -3.46%
7,COc1ccc(CCN(C)C(=O)c2c(C)nn(CC(C)C)c2Cl)cc1OC,inactive: 1.3%
8,COc1ccc(CC(=O)NCC2CCCN(Cc3ccc(OC(F)(F)F)cc3)C2)cc1 (configuration not stated),inactive: 2.37%
9,CC(=O)N1c2ccc(S(=O)(=O)N(C)CC(=O)N3CCCC3)cc2CC1C (configuration not stated),inactive: 3.19%
10,Cc1ccc(/C=N/N(C)S(=O)(=O)c2ccc(C)cc2)cc1,inactive: -0.427%
11,CN(Cc1c(F)cccc1Cl)C(=O)C1CC(=O)N(CCc2ccccc2)C1 (configuration not stated),inactive: -0.925%
12,O=C(NCCc1ccccc1C(F)(F)F)C1CCC(=O)N(CCCN2CCCC2=O)C1 (configuration not stated),inactive: 0.093%
13,COc1ccccc1C(=O)NC(CCSC)C(=O)NC1CC1 (configuration not stated),inactive: 4.47%
14,O=C(COC(=O)C1CCC(N2C(=O)C3C4CCC(C4)C3C2=O)CC1)c1ccc(F)cc1 (configuration not stated),inactive: 0.812%
15,CCCC(=O)Nc1cc(S(=O)(=O)N2CCCCC2)ccc1N1CCOCC1,inactive: -1.8%
16,COC(=O)CNc1cccc(C(F)(F)F)c1,inactive: -1.68%
17,COc1ccccc1CC(=O)Nc1cccc(C)n1,inactive: 0.293%
18,CCSc1nsc(NC(=O)Nc2cccc(F)c2)n1,inactive: 9.07%
19,COc1cc(OC)cc(C(=O)NNC(=S)NC2CC2)c1,inactive: -1.07%
20,CCN1CCCc2cc(CN(CCN3CCOCC3)C(=S)Nc3cccc(C)c3)ccc21,inactive: 1.91%
